In PubChem BioAssay AID1508600 (Functional Genomics Laboratory (NCATS/FGL), 2020):
About 3,700 (7%) of roughly 53,000 sequences were called active.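 Rule for the calls: active = gene knockdowns whose robust z-score for IL-1 alpha signal is at least 2 or at most -2, so actives lie on both sides; inactive = the rest.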 The list shows a part of the results.

assay: Components of the Cytosolic LPS Sensing Pathway: Gene Identification via Genome-wide siRNA Screen; conditions: RAW264.7 macrophages, IL-1a HTRF, actives lie on both sides, screened at 100 nM (by protocol), cells primed 5 h with Pam3CSK4 first;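 note: robust z of the log signal after scaling to non-targeting control siRNA wells of the plate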
Summary of the method: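 RAW264.7 mouse macrophages reverse-transfected with single siRNAs (100 nM final) for 48h, primed with Pam3CSK4 for 5 hours, then transfected with LipidA for 24 hour. Supernatant IL-1a read by HTRF; values normalized to negative-control median, log-transformed robust z-scores.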

z-score, inactive:
GCCAGGGUAUUAAUGCCUCTT against Gpr183 0.0276
GCGGACACUAAUGAACCUGTT against Tagln2 0.0454
GGACUUCAUGAAGAACCUATT against Myo1g -0.839
GCGAUGUUAAUUCCUAUUATT against Nhlrc1 -0.0266
GGGUUUGAAGAGGUUUUCATT against Pbrm1 1.71
GGCUAUGCUUCUUUCCUUUTT against Cfhr1 0.846
GCCCUUUGAAGCCUUUGAGTT against Chchd5 0.812
GCAUACAUAGCACUACAUATT against Olfr536 -0.513
GGUGUACUCUGUUCCCAUGTT against Psmb6 -1.54
GGACAAGAAACAGCUGUCATT against Stbd1 -1.78
GCCUAUCAUUAACAAGUCATT against A430033K04Rik -0.375
GGGAAGAUCAUUGUUUAUATT against Cpq 1.8
GGGCUUUGAUCGACGGAUUTT against Clvs1 0.587
GCCAGUUUGUGUGCAAAAATT against Lrp1 -0.551
CCAGAUAACAUUAGAACUATT against Ybx1 1.35
GGCAUAUGUGCAAAUAAAATT against Rtp3 -1.44
GGUUAAUUCCUUCAUUGCCTT against Gpr1 1.7
GGCCUAUGCGAAAAUCUGUTT against Camk2b -1.14
GCAAUCAUUUUAGCAUGUGTT against Tas2r129 -0.248
GGACACAGAGAAAAAAAAATT against Apeh -0.624
GCCACCUCUUAUGAGGCUUTT against Lrrc41 0.281
GCACACAAGUCUCUGAAUUTT against Ipo7 -0.328
GGGAAUGGUUUCUUGAAAUTT against Pigk 0.36
GGAUUUGUGCACGUGAUCUTT against Adam5 -1.78
GGAAUCAACUUCAUGGUCUTT against Mrpl18 0.0907
GGAAUACAGCCCUAACCUCTT against Efnb3 0.665
GGAAACUUACCACUACUAUTT against Tm9sf1 1.2
GCUGAUCCUAGGUUCAGAATT against Acd -0.449
CCACGGUUAUGAUGACGACTT against Dyrk1b 1.89
GGCCUAUUCAAUGGCGUGATT against Hapln3 -0.839
GGCUAUUUCAGGUUCAAGATT against Tnfrsf9 -0.811
UUUUGUUCUCAAAGGAAUATT against Olfr194 0.964
CCUGCUGUUGAGCUUCACATT against Adra1b -1.34
CCUAAGAUGAUCGUAGGCUTT against Olfr1221 -0.643
CCAGUCGUAGUGAAUUUGUTT against Ajm1 -0.76
CCUAUGUGAAAAAAACUGCTT against Olfr1026 -0.747
GGAUGAGCUGAGGAAAUCCTT against Psd2 -0.535
GGGUCAGUGAAAAGAUCAGTT against Olfr433 0.749
CGCAAGAAUCUCCUUUAAUTT against Zfp760 0.0651
GGACUAUUCUGAGAAUCCCTT against Olfr821 -1.69
GAGAAACUAUGGCUGAAAATT against Klk1 0.439
GGAAGGUGGCAAGGUAUCUTT against Rab11fip3 0.203
GGGAAUAUUAGAAACCCUATT against Camkk1 0.76
GGAUCAAUCCACAGACGACTT against Dbr1 1.56
GCCGUAUUCAUUAAUAAAGTT against Ash1l 0.0753
GCUGAAAUACCACUCUCCGTT against Chl1 -1
CCCUAGACCAGUAAAUACCTT against Mymk -0.649
GGGCUUUGAAUACAUCCUGTT against Prelid1 0.0746
CGAUAUUGGUGGAUUCUUUTT against Cntnap1 0.836
GCAACCAGAAAUUAGAACATT against 3830403N18Rik -0.123
GGUACUCAUUUGUUACCAGTT against Gpr45 1.27
GGCCAUGGUUGAGUUUGCUTT against Nsmce2 -1.66
GGAGCAUUUAAAAGUUCCATT against Fam81a 1.38
GGAGAGUUCACACAGACUGTT against Whrn -0.441
CCUUCAUUUAUUCUACGAGTT against Zfp791 0.344
CGGUGUCGAAGGUUUGGAUTT against Mtarc2 0.0068
GCAGUCAUACAGAUUUUGGTT against Slc15a4 0.325
GGCCAUUCAGAUCUUAACCTT against Hadh 0.418
GGAGGUACAUCAAAUGGUGTT against Ankk1 1.57
CGGUCAAAUGUUGGAAGAUTT against Trappc3 -0.42
UGUCAGCGAGGAAUAACCCTT against Olfr503 -0.944
GGACAUCGUAGAGAAAGUUTT against Msi1 -1.44
CGGGUUCUACUAUCAUGCATT against Ltbp4 0.259
CGCCAUGCUUAGAUUUAAATT against Mettl6 0.348
GGAAGGAAAAGGAUAAAAGTT against Fbxo43 0.148
GGUGAUCAUUCUGGCAGCUTT against Olfr1215 0.654
GCCAAAGCCGAAUGAGAGGTT against Rtn2 -1
GCACAAGGUUCAAAAAGGCTT against Ska3 -1.06
CGGAUCGGUGCGAGAAUAATT against Gpatch3 0.61
GGAUGACUGCAUCUCUCUGTT against Mtfr1l 0.825
GCACCUUCAGCUAUCUAACTT against Nepn 0.478
CCUCUUCCAGAGAUGUAGCTT against Fos 0.284
GGAUCUUGAGUUUACCAAATT against Uqcrc2 0.379
GGAAAAAAAUUCUGAGUUCTT against Rab6a -0.951
GGCUGUACCCAGCAAAAAGTT against Lca5 1.35
GGAACUAUCGGCUCUUUCUTT against Zdhhc1 -2
GGACUACACAAUUUUCCCUTT against Proz -1.61
CCUGGAACAUAGAUGUAUATT against Jmjd4 0.484
GGAAAUCCUGCUGUAAGGATT against Vmn1r67 0.381
GGUUCACCAUCAAGUCGGATT against Src 0.431
GGAUCAAAUGGAAUGUUCUTT against Ccl25 0.5
GGGUCUCCUCUUUCCGUAATT against Snx32 -0.356
GGAUGUGCCAAGAUUUGCCTT against Fzd3 1.26
GGACACUUAGCAGCAAAGGTT against Lsm7 -0.924
CCUCAUAUGGAACCUGCAUTT against 8430429K09Rik -0.798
GCUCUGAUGGUCUACUGCUTT against Rgs3 -0.347
GCCGAAUCUUCAAGCCUGUTT against Ssh3 0.206
GGCCUUCUUCACCAUUGCUTT against Entpd6 -1.07
GGAGAAGUUCAGAUCUUUGTT against Tmem266 0.914
GCUUCUUACAGUUUGCCCATT against Vmn1r65 -0.859
CCAUAUUGAUCAGUUGAAGTT against Mapk14 -0.158
GGUGAAAAAUGCAUUGAAGTT against Olfr1043 -0.727
GGAGCAGCGACUCAACUUUTT against Stub1 0.733
CGAUGGAGUCUGGUAUUCATT against Srpx -1.3
CGAAAAUAAUGGGUUCGGUTT against Tbx5 0.956
CGUAUGAAGGAAUUCCAUGTT against Tex37 0.557
GCUCCAUUAUGCCAGACUATT against Madcam1 0.8
GGGUUGAGCAACCGUUUCCTT against Tomm40 -0.285
GGAGAGUCGGAAUUUUUAUTT against Sgcg 1.83
GGACUAGAGAAUGUUUCUATT against Rom1 0.0116
GCAAGGUGACAUCAGAAGUTT against Flot2 -0.709
GCCAAUAUCUAUCUACUACTT against Vsig1 -0.231

Random excerpt: three records from the list.
z-score, inactive:
CCUUCAUUUAUUCUACGAGTT against Zfp791 0.344
GGAGCAUUUAAAAGUUCCATT against Fam81a 1.38
GGAAAUCCUGCUGUAAGGATT against Vmn1r67 0.381

Next part.

z-score, active:
GGAUUUGAGGUUCAUAUAATT against Cdk20 -2.48
CCUAGUACUUCGAAGAAAGTT against Tmem255a -2.62
GGAAAUAUCUCUGGUAAUATT against Reln -2.17
GCCAGACAAGCCUCAUUGATT against Ncapd2 -2.2
GGACUGGAAAAUAUCAAACTT against Spata5 2.04
